Counter-ions that a name gives are not always drawn. This is one part of the list. The calls rarely recur for the same compound in another form.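 Kinases were expressed as nanoluciferase fusions in K562 cells and luminescence was read every 4 h between 2 and 18 h as percent of control, DMSO set to 100% and a positive control to 0%. A time point counts as decreased when the signal drops significantly (2 sigma). The hit call is the authors' own, does not follow from the count of time points alone, and its rule is not shown.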
What follows are compounds tested against PRKAA1 (UniProt Q13131) (assay: kinase-Nluc reporter destabilization hit call (1 = scored as downregulated) (binary); higher = compound decreases kinase abundance). Details: K562; 2-18 h.

Chains of the proteins cited; added tags and fusions are not shown. Lines headed by an entry give the natural chain unless they say otherwise; changes in a name come on top.
UniProt Q13131: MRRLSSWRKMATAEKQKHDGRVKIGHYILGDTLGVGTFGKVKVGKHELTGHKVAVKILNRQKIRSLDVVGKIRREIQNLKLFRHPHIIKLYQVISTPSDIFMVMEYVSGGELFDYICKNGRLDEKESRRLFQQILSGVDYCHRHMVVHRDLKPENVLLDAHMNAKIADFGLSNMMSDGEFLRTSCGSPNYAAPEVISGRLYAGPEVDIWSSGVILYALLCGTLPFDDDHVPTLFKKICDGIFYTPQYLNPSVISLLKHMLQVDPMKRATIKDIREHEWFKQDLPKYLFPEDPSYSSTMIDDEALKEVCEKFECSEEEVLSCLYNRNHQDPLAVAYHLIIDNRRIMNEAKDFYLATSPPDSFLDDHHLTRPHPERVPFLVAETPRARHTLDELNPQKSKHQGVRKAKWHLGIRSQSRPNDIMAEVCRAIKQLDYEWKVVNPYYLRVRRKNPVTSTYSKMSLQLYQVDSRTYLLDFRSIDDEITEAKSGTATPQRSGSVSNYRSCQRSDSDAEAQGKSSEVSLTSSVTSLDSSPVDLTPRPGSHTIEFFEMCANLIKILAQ

kinase-Nluc reporter destabilization hit call, inactive:
O=C(CSC1=NCCN1)NC1CCCCCC1 [ICCB-19 (hydrochloride)] (2.5 µM) 0
CCCS(=O)(=O)Nc1ccc(F)c(C(=O)c2c[nH]c3ncc(-c4ccc(Cl)cc4)cc23)c1F [Vemurafenib] (10 µM) 0
Cc1ccc(OCCSc2ncccn2)c(Br)c1 [ZLN024 (hydrochloride)] (10 µM) 0
Nc1ncnc2c1c(-c1ccc(Oc3ccccc3)cc1)nn2C1CCCC1 (2.5 µM) 0
COc1ncc(Cl)cc1S(=O)(=O)Nc1ccc(F)c(C#Cc2cnc(N)nc2)c1F (2.5 µM) 0
Cc1ccc(CNc2ncnc3ccc(-c4ccc(CO)o4)cc23)o1 (10 µM) 0
NC(=O)c1nnc(N[C@@H]2CCCC[C@@H]2N)nc1Nc1cccc2cc[nH]c12 (10 µM) 0
CNc1nc(Nc2ccc(C(=O)N3CCOCC3)cc2OC)nc2[nH]cc(Cl)c12 (2.5 µM) 0
CCNc1nc(Nc2cc(F)c(C(=O)N3CCOCC3)cc2OC)ncc1C(F)(F)F [GNE-7915 (tosylate)] (10 µM) 0
CCN1CCN(Cc2ccc(Nc3ncc(F)c(-c4cc(F)c5nc(C)n(C(C)C)c5c4)n3)nc2)CC1 [Abemaciclib] (2 µM) 0
COCCNc1nc2ccc(C#CC3(O)CCCCC3)cc2n1-c1ccnc(N)n1 (10 µM) 0
OCCn1cc(-c2ccc3c(c2)CC/C3=N\O)c(-c2ccncc2)n1 (10 µM) 0
O=C1N[C@@H](Cc2c[nH]c3ccccc23)C(=O)N2CCC[C@@H]12 [Brevianamide F] (10 µM) 0
Cn1nccc1Nc1nccc(-c2ccn([C@H](CO)c3ccc(Cl)c(F)c3)c(=O)c2)n1 [Ravoxertinib] (10 µM) 0
O=C(NCCN1CCOCC1)c1cc2c(Oc3ccc(NC(=O)C4(C(=O)Nc5ccc(F)cc5)CC4)cc3)ccnc2[nH]1 [Tyrosine kinase inhibitor] (10 µM) 0
COc1cc2c(N3CCN(C(=O)Nc4ccc(OC(C)C)cc4)CC3)ncnc2cc1OCCCN1CCCCC1 [Tandutinib (hydrochloride)] (10 µM) 0
COc1cc(/C=C/C(=O)NCC(O)c2ccc(O)cc2)ccc1O (stereo not drawn) [N-Feruloyloctopamine] (2.5 µM) 0
COc1cc2nccc(Oc3ccc(NC(=O)NC4CC4)c(Cl)c3)c2cc1C(N)=O [Lenvatinib (mesylate)] (10 µM) 0
CN1CCN(c2cccc(Nc3nc4c(-c5ccc(S(C)(=O)=O)cc5)cccn4n3)c2)CC1 (10 µM) 0
C=C(CC[C@@H](C(=O)O)[C@H]1[C@H](O)C[C@@]2(C)C3=C(CC[C@]12C)[C@@]1(C)CC[C@H](OC(C)=O)C(C)(C)[C@@H]1CC3)C(C)C [Pachymic acid] (10 µM) 0
O=c1[nH]c(=O)n([C@@H]2O[C@H](CO)[C@@H](O)[C@@H]2O)cc1/C=C/Br [Sorivudine] (10 µM) 0
NC(=O)c1ccc(-c2nc(-c3ccc4c(c3)OCCO4)c(-c3ccccn3)[nH]2)cc1 (10 µM) 0
CC#CC(=O)Nc1ccc2ncnc(Nc3cccc(Br)c3)c2c1 (10 µM) 0
CCc1c(C(=O)NNC(=O)C(O)c2cc(F)cc(F)c2)ccc(O)c1C (stereo not drawn) (10 µM) 0
CC(=O)c1c(C)cc2cccc(O)c2c1O [Nepodin] (10 µM) 0
Cc1c(-c2c(F)cc(C(N)=O)c3[nH]c4c(c23)CC[C@H](C(C)(C)O)C4)cccc1-n1c(=O)c2cccc(F)c2n(C)c1=O (2.5 µM) 0
CCc1cc2c(cc1N1CCC(N3CCOCC3)CC1)C(C)(C)c1[nH]c3cc(C#N)ccc3c1C2=O [Alectinib] (10 µM) 0
FC(F)c1nc2ccccc2n1-c1nc(N2CCOCC2)nc(N2CCOCC2)n1 (2 µM) 0
FC(F)(c1ccc2ncccc2c1)c1nnc2ccc(-c3ccncc3)nn12 (10 µM) 0
Cn1cc(-c2cnn3c(N)c(Br)c([C@@H]4CCCNC4)nc23)cn1 (2.5 µM) 0
C[C@@H]1COCCN1c1cc(C2([S@@](C)(=N)=O)CC2)nc(-c2ccnc3[nH]ccc23)n1 [(S)-Ceralasertib] (10 µM) 0
CC#CC(=O)N1CC[C@@H](n2c(=O)n(-c3ccc(Oc4ccccc4)cc3)c3c(N)ncnc32)C1 [Tirabrutinib] (10 µM) 0
C[C@@]1(c2ncncc2F)NC(=O)c2cc(-c3cn[nH]c3)ccc21 (10 µM) 0
COc1ccc(Cl)c(Nc2nc3ccccc3nc2NS(=O)(=O)c2cccc(NC(=O)C(C)(C)N)c2)c1 [Pilaralisib] (10 µM) 0
O=Nc1c(-c2c(O)[nH]c3ccc(I)cc23)[nH]c2ccccc12 [5-Iodo-indirubin-3'-monoxime] (10 µM) 0
COc1cc2nccc(Oc3ccc(NC(=O)NC4CC4)c(Cl)c3)c2cc1C(N)=O [Lenvatinib] (10 µM) 0
C[C@]1(O)CCN(c2nc(N3C[C@H](O)[C@@H](O)C3)cc(C(F)(F)F)c2C#N)C1 (10 µM) 0
Cn1cnc(Cn2ccc3ccc(CNCc4[nH]c5ccccc5c4[C@H]4NC(=O)c5ccc(O)cc54)cc32)c1 (10 µM) 0

Nothing new here: an excerpt of the list.
kinase-Nluc reporter destabilization hit call, inactive:
Cn1cc(-c2cnn3c(N)c(Br)c([C@@H]4CCCNC4)nc23)cn1 (2.5 µM) 0
C[C@@H]1COCCN1c1cc(C2([S@@](C)(=N)=O)CC2)nc(-c2ccnc3[nH]ccc23)n1 [(S)-Ceralasertib] (10 µM) 0
CC#CC(=O)N1CC[C@@H](n2c(=O)n(-c3ccc(Oc4ccccc4)cc3)c3c(N)ncnc32)C1 [Tirabrutinib] (10 µM) 0
C[C@@]1(c2ncncc2F)NC(=O)c2cc(-c3cn[nH]c3)ccc21 (10 µM) 0
COc1ccc(Cl)c(Nc2nc3ccccc3nc2NS(=O)(=O)c2cccc(NC(=O)C(C)(C)N)c2)c1 [Pilaralisib] (10 µM) 0
O=Nc1c(-c2c(O)[nH]c3ccc(I)cc23)[nH]c2ccccc12 [5-Iodo-indirubin-3'-monoxime] (10 µM) 0
COc1cc2nccc(Oc3ccc(NC(=O)NC4CC4)c(Cl)c3)c2cc1C(N)=O [Lenvatinib] (10 µM) 0
C[C@]1(O)CCN(c2nc(N3C[C@H](O)[C@@H](O)C3)cc(C(F)(F)F)c2C#N)C1 (10 µM) 0
Cn1cnc(Cn2ccc3ccc(CNCc4[nH]c5ccccc5c4[C@H]4NC(=O)c5ccc(O)cc54)cc32)c1 (10 µM) 0

Reference: the supplement of paper PMC12823440, “Inhibitors supercharge kinase turnover through native proteolytic circuits” (Nature, 2025)
